The results in this text go back to publication PMC11191273.

By UniProt entry, the sequences of proteins in these tests, tags left out.
UniProt Q9UMX0: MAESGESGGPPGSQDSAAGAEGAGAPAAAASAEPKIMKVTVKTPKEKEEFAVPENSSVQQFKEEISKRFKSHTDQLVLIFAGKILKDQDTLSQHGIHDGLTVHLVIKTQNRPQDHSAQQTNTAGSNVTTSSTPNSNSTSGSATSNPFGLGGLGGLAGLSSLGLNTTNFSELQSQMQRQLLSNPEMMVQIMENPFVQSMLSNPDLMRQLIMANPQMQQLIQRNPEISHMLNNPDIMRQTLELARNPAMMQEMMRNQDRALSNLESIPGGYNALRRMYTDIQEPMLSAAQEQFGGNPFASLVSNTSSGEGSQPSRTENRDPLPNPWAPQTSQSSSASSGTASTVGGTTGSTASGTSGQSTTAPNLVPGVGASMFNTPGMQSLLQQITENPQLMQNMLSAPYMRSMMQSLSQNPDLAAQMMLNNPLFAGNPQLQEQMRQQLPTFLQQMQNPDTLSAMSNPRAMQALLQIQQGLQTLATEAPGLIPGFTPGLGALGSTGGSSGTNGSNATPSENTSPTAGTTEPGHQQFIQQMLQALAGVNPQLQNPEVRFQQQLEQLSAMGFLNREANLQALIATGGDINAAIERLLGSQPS
UniProt P35579: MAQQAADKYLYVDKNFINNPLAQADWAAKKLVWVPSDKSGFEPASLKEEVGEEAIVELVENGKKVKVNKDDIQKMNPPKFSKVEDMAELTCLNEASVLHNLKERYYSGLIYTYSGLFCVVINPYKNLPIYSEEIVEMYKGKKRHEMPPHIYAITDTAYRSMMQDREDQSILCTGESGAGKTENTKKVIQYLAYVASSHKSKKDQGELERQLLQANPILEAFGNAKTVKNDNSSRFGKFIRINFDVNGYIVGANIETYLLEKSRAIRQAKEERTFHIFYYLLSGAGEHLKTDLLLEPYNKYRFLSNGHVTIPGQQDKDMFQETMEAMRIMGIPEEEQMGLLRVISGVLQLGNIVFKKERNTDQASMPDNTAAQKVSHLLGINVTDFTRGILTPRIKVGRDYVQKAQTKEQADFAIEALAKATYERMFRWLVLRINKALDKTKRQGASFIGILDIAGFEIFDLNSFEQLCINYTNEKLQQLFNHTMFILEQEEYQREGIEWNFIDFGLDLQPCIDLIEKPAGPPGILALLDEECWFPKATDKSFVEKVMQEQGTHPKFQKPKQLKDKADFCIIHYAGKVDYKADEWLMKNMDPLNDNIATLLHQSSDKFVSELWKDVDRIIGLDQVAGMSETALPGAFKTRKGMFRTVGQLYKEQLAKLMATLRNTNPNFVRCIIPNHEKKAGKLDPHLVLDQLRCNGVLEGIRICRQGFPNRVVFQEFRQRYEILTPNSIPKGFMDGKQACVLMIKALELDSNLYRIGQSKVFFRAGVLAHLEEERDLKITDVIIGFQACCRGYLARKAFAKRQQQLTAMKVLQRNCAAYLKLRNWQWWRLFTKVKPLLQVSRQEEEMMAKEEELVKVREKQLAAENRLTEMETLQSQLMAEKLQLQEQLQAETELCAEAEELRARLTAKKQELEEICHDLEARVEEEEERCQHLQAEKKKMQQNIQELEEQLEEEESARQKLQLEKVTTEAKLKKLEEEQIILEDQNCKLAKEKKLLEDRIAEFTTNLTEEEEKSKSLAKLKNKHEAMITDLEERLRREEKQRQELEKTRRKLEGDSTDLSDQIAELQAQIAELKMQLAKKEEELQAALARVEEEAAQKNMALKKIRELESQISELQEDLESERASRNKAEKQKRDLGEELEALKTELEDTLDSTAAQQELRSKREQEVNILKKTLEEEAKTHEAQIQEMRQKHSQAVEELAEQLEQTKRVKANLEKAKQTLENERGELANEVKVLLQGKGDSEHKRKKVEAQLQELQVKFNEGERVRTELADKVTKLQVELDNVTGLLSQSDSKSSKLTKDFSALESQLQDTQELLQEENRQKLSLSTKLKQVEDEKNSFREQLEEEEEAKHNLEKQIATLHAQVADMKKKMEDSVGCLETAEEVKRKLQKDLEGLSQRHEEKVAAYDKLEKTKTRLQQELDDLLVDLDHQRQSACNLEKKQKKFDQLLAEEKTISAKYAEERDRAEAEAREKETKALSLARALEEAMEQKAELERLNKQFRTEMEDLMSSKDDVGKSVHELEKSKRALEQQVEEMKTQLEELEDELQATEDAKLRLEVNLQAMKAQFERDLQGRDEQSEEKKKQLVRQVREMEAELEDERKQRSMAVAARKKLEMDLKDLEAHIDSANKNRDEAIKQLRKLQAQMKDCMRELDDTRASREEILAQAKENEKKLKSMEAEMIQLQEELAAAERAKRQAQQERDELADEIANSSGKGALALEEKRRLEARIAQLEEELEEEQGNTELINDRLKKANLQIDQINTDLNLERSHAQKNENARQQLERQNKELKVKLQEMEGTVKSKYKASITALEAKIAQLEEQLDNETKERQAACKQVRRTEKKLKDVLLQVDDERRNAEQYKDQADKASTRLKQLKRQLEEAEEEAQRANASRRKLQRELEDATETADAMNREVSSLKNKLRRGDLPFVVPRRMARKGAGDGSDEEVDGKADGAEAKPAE
UniProt P60842: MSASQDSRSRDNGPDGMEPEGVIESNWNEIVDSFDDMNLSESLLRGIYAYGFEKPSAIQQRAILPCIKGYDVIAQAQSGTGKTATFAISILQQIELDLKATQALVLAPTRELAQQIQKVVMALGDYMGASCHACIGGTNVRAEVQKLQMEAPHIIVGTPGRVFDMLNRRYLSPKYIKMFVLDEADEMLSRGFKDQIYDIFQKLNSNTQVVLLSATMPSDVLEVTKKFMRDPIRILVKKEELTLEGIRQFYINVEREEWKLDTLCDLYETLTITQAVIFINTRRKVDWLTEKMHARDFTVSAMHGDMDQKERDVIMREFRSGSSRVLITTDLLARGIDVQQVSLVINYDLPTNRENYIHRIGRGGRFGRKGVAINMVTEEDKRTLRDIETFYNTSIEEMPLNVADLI
UniProt P60900: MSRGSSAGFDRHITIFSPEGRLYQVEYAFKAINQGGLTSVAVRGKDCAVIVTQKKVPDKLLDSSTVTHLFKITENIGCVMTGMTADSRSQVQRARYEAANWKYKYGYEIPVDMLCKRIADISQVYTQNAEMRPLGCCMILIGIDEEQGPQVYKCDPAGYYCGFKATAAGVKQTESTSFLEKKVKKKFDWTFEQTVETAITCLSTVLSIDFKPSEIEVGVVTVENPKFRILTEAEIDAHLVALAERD
UniProt P18085: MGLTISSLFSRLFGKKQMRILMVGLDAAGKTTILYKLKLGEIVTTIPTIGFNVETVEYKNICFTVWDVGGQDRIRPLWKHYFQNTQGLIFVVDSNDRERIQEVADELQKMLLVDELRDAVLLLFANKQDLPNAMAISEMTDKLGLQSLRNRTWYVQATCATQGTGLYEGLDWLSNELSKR

These are yes or no findings as the source states them, for the method shown. Binding seen in cells or lysates may run through a third protein. Here binding means that the protein was enriched with, or labelled near, the bait; the list need not be complete.

The experiment has as its target 3Flag-UBQLN1 (Ubiquilin1, Flag-tagged) (human) (UniProt Q9UMX0). The experiment can be described thus: affinity purification with mass spectrometry; anti-Flag immunoprecipitation from lysate (NETN buffer) of hESCs stably expressing 3Flag-UBQLN1, Protein G beads, SDS-PAGE, LC/MS.

MYH9 (from UniProt P35579 1-1960): the binding result was “binds”.
Take EIF4A1 (from UniProt P60842 1-406): the binding result is “binds”.
Turning to PSMA6 (from UniProt P60900 1-246), the binding entry is listed as “binds”.
For the substance ARF4 (from UniProt P18085 1-180), the binding result was “binds”.
